For at least one compound, name, drawing or mass did not settle the structure.
Tested on: male Spargue-Dawley rats
Experiment: locomotor depressant effect in rats (center distance traveled, Digiscan activity monitors)
Assay type: in vivo, rat
Conditions: dexamethasone 0.16, 0.4, 0.8, 4 mg/kg s.c. 15 minutes before metaclopramide 4.0 mg/kg s.c.
Method: In this example, the effect of the addition of a steroid, such as dexamethasone, on metoclopramide's locomotor depressant effects is studied. Forty-eight male Spargue-Dawley rats (250-350 g) are used for this experiment. The rats are housed in pairs and allowed free access to food and water and are not handled except for cage changes and weighing prior to testing. All experimental procedures are performed during the rat's nocturnal cycle, in dimly lit behavior rooms, except that the rats are moved to adjacent behavior rooms 30 minutes prior to testing. Eight rats are tested at a time, four rats from each condition are tested together and groups are randomly chosen to control for order sequence effects. The locomotor experiments are carried out in clear, acrylic 41×41×30 cm test chambers inside Ominitech Digiscan activity monitors (Accuscan, Inc.). Each monitor uses two arrays of infrared photocell beams (8×8 photocells, model RXYZCM-8) to detect several parameters of the rat's movement both horizontally and vertically. Data is collected in 5-min bins during testing. Dexamethasone (Sigma) is dissolved in deionized water at concentrations of 0.16, 0.4, 0.8, and 4 mg/ml. […] Each rat is then immediately placed into a locomotor testing box and the data is recorded for 30 minutes (5-min bins). The data is analyzed with a one way ANOVA for the dependent variable, center distance traveled. […]

C[C@@H]1C[C@H]2[C@@H]3CCC4=CC(=O)C=C[C@]4(C)[C@@]3(F)[C@@H](O)C[C@]2(C)[C@@]1(O)C(=O)CO [dexamethasone]
reversal of the locomotor depressant effects of metaclopramide: dose-dependently reverses
